This is an account of results in PubChem BioAssay AID602 (SRMLSC, 2007).

The assay can be described thus: MRP1 drug-resistance reversers in H69AR cells – cell-based, doxorubicin co-treatment, primary screen (AID 602). The conditions noted are these: CellTiter-Glo, 72 h, at 10 µM. In general terms: ATP-based viability assays read luminescence as a measure of living cells.
The mark [1] stands for this setting: H69AR cells + 2 uM doxorubicin, measured here: viability with 2 uM doxorubicin, stronger effect = lower value.
Setting [2] is: H69AR cells, measured here: cytotoxicity without doxorubicin.

The list shows a part of the results.

What is called viability is a read-out of living cells in per cent, often relative to untreated cells. For the compound `O=C(OC1CN2CCC1CC2)C12CC3CC(CC(C3)C1)C2` (stereo unspecified), the viability runs as follows: under setting [1], 73.2%; under setting [2], 96.3%.
For the compound `COc1ccc(OP(C)(=O)Nc2cccc(F)c2)cc1` (stereo unspecified), the viability by setting is: under setting [1], 88.4%; under setting [2], 96.7%.
Regarding `Cc1ccc(NP(C)(=O)Oc2ccccc2)c(C)c1` (stereo unspecified), the viability is, setting by setting: under setting [1], 81%; under setting [2], 101%.
For `COc1ccccc1OP(C)(=O)Nc1ccc(C)cc1` (stereo unspecified) the same measures were 92.5% and 82.8%.
In the case of `ClCCSc1nnc(-c2cccnc2)o1`, the viability is 87.6% under setting [1] and 93.1% under setting [2].
For `CP(=S)(Nn1cnnc1)Oc1ccccc1` (stereo unspecified) the same measures were 93.5% and 86.1%.
In the case of `CP(=O)(Nc1ccccn1)Oc1ccc(Cl)cc1` (stereo unspecified), the viability is 97% under setting [1] and 101% under setting [2].
For `CCC(C)N(CC(C)C)C(=S)SC(NC(C)=O)C(Cl)(Cl)Cl` (stereo unspecified) the same measures were 82.9% and 70.8%.
For `CCOP(C)(=S)SCC(=O)NC(C)C(=O)O` (stereo unspecified), the viability reads like this: under setting [1], 85.2%; under setting [2], 91.7%.
Take `CP(=O)(NC(=O)Nc1ccccc1)Oc1ccccc1` (stereo unspecified): the viability reads like this: under setting [1], 92.9%; under setting [2], 96.7%.
As to `O=C(COc1ccccc1)OC1CN2CCC1CC2` (stereo unspecified), the viability came out at 108% under setting [1] and 104% under setting [2].
In the case of `COP1(=S)c2c(C)nn(CCC#N)c2N=C(c2ccc(F)cc2)N1C` (stereo unspecified), the viability reads like this: under setting [1], 82.8%; under setting [2], 62%.
For `Cc1nc2ccc3ccccc3c2s1.O=[N+]([O-])c1cc([N+](=O)[O-])c(O)c([N+](=O)[O-])c1` the same measures were 92.8% and 87.2%.
On to `CC1(CBr)Cn2c(nc3ccccc3c2=O)S1` (stereo unspecified), for which the viability is, setting by setting: under setting [1], 81.1%; under setting [2], 87.7%.
For `Clc1n[nH]nc1-c1nn[nH][15n]1` the same measures were 100% and 105%.
For `O=P1(Nc2ccccn2)COc2ccccc2OC1` the same measures were 83.3% and 69.6%.
For `O=P1(Nc2ccc(Br)cn2)COc2ccccc2OC1` the same measures were 91% and 98.3%.
Take `Cc1ccc(OCC(=O)OC2CN3CCC2CC3)cc1` (stereo unspecified): the viability reads like this: under setting [1], 99.1%; under setting [2], 94.1%.
As to `O=P1(Nc2ncccn2)COc2ccccc2OC1`, the viability under setting [1] was found to be 105% and the viability under setting [2] stood at 94.2%.
On to `COc1ccccc1OP(C)(=O)Nc1c(C)cccc1C` (stereo unspecified), for which the viability turned out to be 94.6% under setting [1] and 96.5% under setting [2].
For `Cc1nn(-c2ccccc2)c2c1P(=O)(N1CCOCC1)N(C)C(c1ccccc1)=N2` (stereo unspecified), the viability reads like this: under setting [1], 78.4%; under setting [2], 87.8%.
Consider `CCOP1(=S)c2c(C)nn(CCC#N)c2N=C(c2ccc(F)cc2)N1C` (stereo unspecified), for which the viability reads like this: under setting [1], 66.9%; under setting [2], 66.7%.
For `CCOP1(=S)c2c(C)nn(CCC#N)c2N=C(c2ccccc2F)N1C` (stereo unspecified), the viability under setting [1] worked out at 70.4% and the viability under setting [2] came out at 68.9%.
For `Cc1ccc(C)c(NP(C)(=O)Oc2ccccc2)c1` (stereo unspecified) the same measures were 102% and 97.1%.
For `Cc1cc(C)cc(OP(C)(=O)Nc2ccccn2)c1` (stereo unspecified) the same measures were 108% and 100%.
The matching figures for `Cc1cc(C)cc(OP(C)(=O)Nc2ccc(C)cc2C)c1` (stereo unspecified): 82.7% and 95.5%.
As for `Cc1cccc(OCC(=O)OC2CN3CCC2CC3)c1` (stereo unspecified), the viability runs as follows: under setting [1], 95.3%; under setting [2], 95.3%.
Regarding `CP(=O)(Nc1ccccc1F)Oc1ccccc1` (stereo unspecified), the viability runs as follows: under setting [1], 89.7%; under setting [2], 93.2%.
The matching figures for `O=P1(Nc2nc3ccc(Cl)cc3s2)COc2ccccc2O1` (stereo unspecified): 89.8% and 103%.
Consider `CP(=O)(Nc1ccccc1)Oc1ccc(F)cc1` (stereo unspecified), for which the viability under setting [1] came out at 101% and the viability under setting [2] is 96.8%.
The matching figures for `COC(=O)c1cc2c(s1)N=C(c1ccccc1)N(C)P2(=O)N1CCOCC1` (stereo unspecified): 86.9% and 85.2%.
In the case of `CCN(CC)CCCOC(=O)C(O)(c1ccccc1)C1CCCCC1` (stereo unspecified), the viability runs as follows: under setting [1], 96.4%; under setting [2], 83.8%.
Take `O=C(OC1CN2CCC1CC2)c1cccc(Cl)c1` (stereo unspecified): the viability is, setting by setting: under setting [1], 103%; under setting [2], 95.6%.
The matching figures for `CN(C)CCOC(=O)C(O)(c1ccccc1)C1CCCCC1` (stereo unspecified): 88.1% and 98%.
For `Cc1ccccc1NP(C)(=O)Nc1ccccc1C` the same measures were 104% and 90.5%.
For the compound `CP(=O)(Nc1ccc2c(c1)OCCO2)Oc1ccccc1` (stereo unspecified), the viability reads like this: under setting [1], 93.5%; under setting [2], 95%.
Regarding `c1nnnn1CCn1cnnn1`, the viability under setting [1] was found to be 90.5% and the viability under setting [2] came to 89.2%.
For `O=P(Nc1nccs1)(c1ccccc1)c1ccccc1`, the viability runs as follows: under setting [1], 88.1%; under setting [2], 88.4%.
The matching figures for `CC1CCN(C(=O)Oc2c(Cl)cc(Cl)c3cccnc23)CC1`: 60.3% and 83.9%.
For `CC(C)(C)c1ccc(OP(C)(=O)O)cc1` the same measures were 103% and 101%.
Consider `CP(=O)(Nc1ccc(Cl)cc1)Oc1ccc(F)cc1` (stereo unspecified), for which the viability under setting [1] was 99.5% and the viability under setting [2] stood at 106%.
As to `COc1ccccc1OP(C)(=O)Nc1c(C)n(C)n(-c2ccccc2)c1=O` (stereo unspecified), the viability reads like this: under setting [1], 85.9%; under setting [2], 91.3%.
With `O=[N+]([O-])c1cccc2n[nH]nc12`, the viability under setting [1] stood at 93% and the viability under setting [2] was 97.6%.
As for `CCc1nc2c(n1)c1c(non1O)c1c2no[n+]1[O-]`, the viability by setting is: under setting [1], 0.97%; under setting [2], 2.17%.
The matching figures for `CP(=O)(Oc1ccccc1)N1CCOC1=O` (stereo unspecified): 97.6% and 104%.
For `CP(=O)(OC12CC3CC(CC(C3)C1)C2)OC12CC3CC(CC(C3)C1)C2` the same measures were 70.5% and 96.6%.
The matching figures for `Cc1nc2ccc3ccccc3c2o1.O=[N+]([O-])c1cc([N+](=O)[O-])c(O)c([N+](=O)[O-])c1`: 92.6% and 100%.
As for `COc1ccccc1OP(C)(=O)Nc1ccc(C)c(C)c1` (stereo unspecified), the viability runs as follows: under setting [1], 85.1%; under setting [2], 89.9%.
For `CCOP(=O)(Nc1ccccc1)OCC`, the viability is, setting by setting: under setting [1], 96.7%; under setting [2], 94.6%.
Turning to `COc1ccccc1OP(C)(=O)Nc1ccc(C)cc1C` (stereo unspecified), the viability under setting [1] came out at 75.2% and the viability under setting [2] came to 78.8%.
The matching figures for `CP(=O)(Nc1ccccn1)Oc1ccccc1` (stereo unspecified): 103% and 89.9%.
The matching figures for `CCc1ccc(OP(C)(=O)O)cc1`: 109% and 93.6%.
As to `Cc1c(NP(C)(=O)Oc2ccc(C(C)C)cc2)c(=O)n(-c2ccccc2)n1C` (stereo unspecified), the viability reads like this: under setting [1], 105%; under setting [2], 89.4%.
For `Cc1c2non([O-])c-2c(C)[n+](=O)[n+]1[O-]` the same measures were 0.79% and 0.46%.
For `Oc1ccccc1CNc1ccccn1` the same measures were 97.1% and 98.8%.
`COc1ccc(OP(C)(=O)Nc2ccccn2)cc1` (stereo unspecified): the viability worked out at 104% under setting [1] and 97.3% under setting [2].
Regarding `CN(C)CCOC(=O)C(O)(c1ccccc1)C1CCCC1` (stereo unspecified), the viability under setting [1] amounted to 83.1% and the viability under setting [2] amounted to 104%.
The matching figures for `CN1CCCC(OC(=O)C(c2ccccc2)c2ccccc2)C1` (stereo unspecified): 85% and 79.2%.
